# Experimental data: PubChem BioAssay AID1259264 (Sanger Institute, 2017)
# Aim: 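Kinase-wide knock-down to find genes that strengthen targeted drug effects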 (primary screen)
# System: CL40 human colorectal cancer cells
# Reagent: siRNA pool against human genes
# Challenge: DMSO, or an anchor drug: BYL719 at 1 µM, cetuximab at 5 µg/ml, or trametinib at 10 nM
# Measurement: 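Replicate-mean viability versus a non-targeting pool, robust z-score from control wells, and mean synergy with BYL719 1 µM, cetuximab 5 µg/ml or trametinib 10 nM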
# Reading the numbers: robust z-score, siRNA alone and viability, siRNA alone: higher = more viable cells; synergy score with BYL719: higher = stronger combined killing with BYL719; synergy score with cetuximab: higher = stronger combined killing with cetuximab; synergy score with trametinib: higher = stronger combined killing with trametinib
# Rule for the call: 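Essential call: siRNA with no drug reaches a robust z under -3 (low cell count); drug synergy scores do not affect it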
# Calls: active = essential (lowers viability alone); inactive = not essential
# The whole screen tested 794 reagents; shown is an unselected part. Over the whole deposit, 15 (1.9%) are marked active. 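Calls rest on knock-down alone at z-score below -3; synergy scores with the three drugs do not decide them.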 Unmarked entries are inactive. No viability above 1 is reported: the scale is capped. The record does not give: the amount of reagent, the time to read-out.
gene knocked down,"robust z-score, siRNA alone","viability, siRNA alone (fraction of control)",synergy score with BYL719,synergy score with cetuximab,synergy score with trametinib
PIK3CD,0.136,0.971,-0.18,-0.0458,-0.00779
RPS6KC1,0.278,0.981,-0.141,-0.0176,0.125
CLK3,0.539,1,-0.0704,-0.0174,0.0449
NME6,-1.08,0.884,-0.135,-0.131,0.12
MECOM,0.539,1,-0.137,-0.0174,0.0896
NTRK3,0.539,1,-0.156,-0.0174,-0.0477
ROCK2,0.157,0.973,-0.104,-0.0443,0.136
ADCK2,-1.62,0.845,-0.105,-0.123,0.0163
MARK2,-0.171,0.949,-0.04,0.0445,-0.04
EPHB2,0.526,0.999,-0.113,0.0253,0.12
SGK2,-0.275,0.942,-0.104,-0.0748,0.0899
MAP2K7,0.259,0.98,-0.16,-0.0371,0.208
LYN,-0.0986,0.954,-0.177,-0.0541,-0.0937
MAP2K6,0.539,1,-0.0843,-0.0174,-0.00179
MPP2,-0.166,0.949,-0.0337,-0.0377,0.119
NTRK1,0.539,1,-0.0281,-0.0174,0.0919
SBK1,0.539,1,-0.115,-0.0174,0.0167
SNRK,-2.6,0.775,-0.0156,-0.0963,0.0755
BCR,-0.978,0.891,-0.101,-0.084,0.0769
MLKL,-0.416,0.932,-0.159,-0.0237,-0.00239
ITPK1,-0.545,0.922,-0.12,-0.0388,0.0507
PI4K2B,0.539,1,-0.049,0.0267,0.0739
STRADB,0.539,1,-0.0652,-0.0174,0.0762
UCK2,0.539,1,-0.072,0.0298,0.0609
KIT,0.539,1,-0.0818,-0.0174,0.0858
TGFBR3,0.168,0.973,-0.137,-0.00168,0.0119
ULK2,0.539,1,-0.0613,-0.0174,0.149
EIF2AK1,0.539,1,-0.0614,-0.0174,0.04
GTF2H1,-0.739,0.908,0.0324,0.0352,0.14
TAOK1,0.539,1,-0.0832,-0.0174,0.0541
TRIB2,0.236,0.978,-0.0309,0.0296,0.165
MYLK,-0.00271,0.961,-0.151,-0.0404,0.13
GALK1,-0.15,0.951,0.00893,-0.066,-0.0756
PDGFRL,0.355,0.987,-0.109,-0.0304,0.0511
KALRN,0.539,1,-0.0303,0.0481,0.0621
CEP290,0.539,1,-0.124,-0.0174,0.0331
TSSK3,-1.88,0.827,-0.0984,-0.0236,0.0245
CAMK2B,0.539,1,-0.116,-0.0174,0.0975
PFKFB2,-0.704,0.911,-0.0793,-0.0857,0.0902
CSNK2A1,0.539,1,-0.156,-0.0174,0.0105
NR2F2,0.334,0.985,-0.0876,0.0289,0.0806
PXK,0.539,1,-0.0444,0.00671,0.00192
STK39,-1.31,0.867,-0.0325,-0.148,0.0919
WNK1,0.539,1,-0.0319,-0.0174,0.109
CALM1,0.539,1,-0.0344,-0.0174,0.0554
PDGFRB,0.492,0.997,-0.0353,-0.00104,-0.0112
COQ8B,0.539,1,-0.149,-0.0174,0.125
PIP4K2B,0.539,1,-0.095,0.015,0.107
PIK3R5,0.327,0.985,-0.0654,-0.0323,0.15
TCF7L2,0.524,0.999,-0.0535,0.0651,0.0266
PNKP,0.539,1,0.0184,0.081,0.108
RPS6KB1,0.539,1,0.0775,0.0573,0.0864
NUP98,-4.79 (active),0.618,-0.0493,-0.012,-0.0344
MAP2K1,0.159,0.973,-0.103,-0.0172,0.0325
PIK3R1,0.373,0.988,-0.116,-0.0199,0.04
DGKB,-0.629,0.916,-0.0721,-0.0461,0.0664
DCLK3,0.539,1,-0.115,-0.0174,0.0404
ATM,-0.407,0.932,-0.0757,-0.0445,0.0142
NEK5,0.468,0.995,-0.16,0.00775,0.0874
RIPK1,0.539,1,-0.0564,-0.0174,0.026
INSR,0.482,0.996,0.0157,-0.0215,0.0397
CAMK4,0.539,1,-0.015,-0.0174,0.0698
NEK9,-0.637,0.916,-0.176,-0.0546,0.0644

Called active, among the entries above:
gene knocked down,"robust z-score, siRNA alone","viability, siRNA alone (fraction of control)",synergy score with BYL719,synergy score with cetuximab,synergy score with trametinib
NUP98,-4.79 (active),0.618,-0.0493,-0.012,-0.0344
